The supplement of paper PMC10849652
The other results are listed elsewhere or left out.

By UniProt entry, the sequences of proteins in these tests, tags left out. Where a name states a change or a piece, a line headed by the entry shows the natural chain unless it says otherwise.
UniProt Q86U42: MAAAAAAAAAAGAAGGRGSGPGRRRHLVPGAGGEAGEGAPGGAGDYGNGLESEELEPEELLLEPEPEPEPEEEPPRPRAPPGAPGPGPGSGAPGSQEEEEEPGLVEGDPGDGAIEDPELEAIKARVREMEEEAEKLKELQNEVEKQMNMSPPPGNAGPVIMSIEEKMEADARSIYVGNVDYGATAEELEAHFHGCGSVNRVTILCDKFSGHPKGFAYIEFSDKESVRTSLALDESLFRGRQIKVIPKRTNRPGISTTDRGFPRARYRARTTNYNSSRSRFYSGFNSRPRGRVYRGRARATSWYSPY
UniProt Q9BTK6, whole entry, looked up: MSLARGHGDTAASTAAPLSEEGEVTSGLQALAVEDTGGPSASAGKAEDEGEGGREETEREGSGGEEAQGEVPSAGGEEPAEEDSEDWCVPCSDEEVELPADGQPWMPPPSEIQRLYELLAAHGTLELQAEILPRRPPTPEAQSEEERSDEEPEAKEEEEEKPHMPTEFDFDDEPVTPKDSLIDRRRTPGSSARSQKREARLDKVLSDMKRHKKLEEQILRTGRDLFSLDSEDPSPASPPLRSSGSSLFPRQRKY
UniProt O60829: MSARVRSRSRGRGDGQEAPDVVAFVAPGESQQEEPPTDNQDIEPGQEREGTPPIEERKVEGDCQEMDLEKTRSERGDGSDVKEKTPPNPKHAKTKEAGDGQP
UniProt Q86UD1: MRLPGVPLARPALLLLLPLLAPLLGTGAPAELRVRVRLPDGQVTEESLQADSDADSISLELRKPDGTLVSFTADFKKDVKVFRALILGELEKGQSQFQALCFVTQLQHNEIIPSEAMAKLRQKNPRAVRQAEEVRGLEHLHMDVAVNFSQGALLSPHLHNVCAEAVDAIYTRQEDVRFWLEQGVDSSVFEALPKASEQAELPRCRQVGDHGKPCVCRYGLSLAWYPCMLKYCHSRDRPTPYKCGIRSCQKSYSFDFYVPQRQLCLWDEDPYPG
UniProt Q8N4S7: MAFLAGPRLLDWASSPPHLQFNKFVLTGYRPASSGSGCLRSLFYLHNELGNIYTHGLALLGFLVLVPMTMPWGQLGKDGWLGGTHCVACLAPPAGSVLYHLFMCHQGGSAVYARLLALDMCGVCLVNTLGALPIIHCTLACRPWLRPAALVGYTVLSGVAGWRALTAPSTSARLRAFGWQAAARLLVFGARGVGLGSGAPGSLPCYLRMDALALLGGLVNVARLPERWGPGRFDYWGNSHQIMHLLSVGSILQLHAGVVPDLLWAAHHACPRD
UniProt Q13438: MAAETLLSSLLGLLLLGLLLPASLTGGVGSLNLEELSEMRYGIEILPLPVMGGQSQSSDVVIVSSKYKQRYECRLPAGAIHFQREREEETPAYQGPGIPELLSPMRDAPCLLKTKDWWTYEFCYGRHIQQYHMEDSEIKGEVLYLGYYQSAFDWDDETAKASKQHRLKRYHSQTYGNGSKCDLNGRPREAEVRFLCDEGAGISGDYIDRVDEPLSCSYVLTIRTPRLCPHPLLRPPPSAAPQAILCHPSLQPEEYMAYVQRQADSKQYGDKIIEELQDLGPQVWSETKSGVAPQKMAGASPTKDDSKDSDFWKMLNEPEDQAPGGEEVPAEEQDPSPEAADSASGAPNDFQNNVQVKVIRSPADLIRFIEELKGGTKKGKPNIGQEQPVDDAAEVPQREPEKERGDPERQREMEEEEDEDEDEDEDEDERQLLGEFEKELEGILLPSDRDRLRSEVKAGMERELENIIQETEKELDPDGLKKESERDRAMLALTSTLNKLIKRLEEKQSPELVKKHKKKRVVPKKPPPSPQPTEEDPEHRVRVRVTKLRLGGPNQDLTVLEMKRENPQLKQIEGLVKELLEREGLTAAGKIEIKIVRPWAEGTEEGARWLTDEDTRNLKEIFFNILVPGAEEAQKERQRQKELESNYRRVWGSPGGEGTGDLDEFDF
UniProt Q8N7B6: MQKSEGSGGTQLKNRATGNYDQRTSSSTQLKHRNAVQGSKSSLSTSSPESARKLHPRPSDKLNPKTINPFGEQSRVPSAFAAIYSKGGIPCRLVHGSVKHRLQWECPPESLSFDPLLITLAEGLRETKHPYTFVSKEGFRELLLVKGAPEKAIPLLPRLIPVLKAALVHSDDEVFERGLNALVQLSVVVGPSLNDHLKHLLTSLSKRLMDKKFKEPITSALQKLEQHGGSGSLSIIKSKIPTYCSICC
UniProt Q9H8K7: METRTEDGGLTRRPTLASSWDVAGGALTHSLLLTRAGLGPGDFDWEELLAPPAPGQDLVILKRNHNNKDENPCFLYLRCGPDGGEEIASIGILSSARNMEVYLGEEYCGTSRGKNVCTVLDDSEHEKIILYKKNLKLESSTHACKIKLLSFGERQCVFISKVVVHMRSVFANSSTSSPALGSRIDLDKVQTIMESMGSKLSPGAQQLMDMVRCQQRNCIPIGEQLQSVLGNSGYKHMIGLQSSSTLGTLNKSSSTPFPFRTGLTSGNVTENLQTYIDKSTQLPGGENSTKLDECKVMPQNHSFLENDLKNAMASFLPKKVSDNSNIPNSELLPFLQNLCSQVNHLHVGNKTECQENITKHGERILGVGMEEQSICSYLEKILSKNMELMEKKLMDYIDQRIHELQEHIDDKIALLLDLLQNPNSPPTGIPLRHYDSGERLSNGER
UniProt Q8IVL6: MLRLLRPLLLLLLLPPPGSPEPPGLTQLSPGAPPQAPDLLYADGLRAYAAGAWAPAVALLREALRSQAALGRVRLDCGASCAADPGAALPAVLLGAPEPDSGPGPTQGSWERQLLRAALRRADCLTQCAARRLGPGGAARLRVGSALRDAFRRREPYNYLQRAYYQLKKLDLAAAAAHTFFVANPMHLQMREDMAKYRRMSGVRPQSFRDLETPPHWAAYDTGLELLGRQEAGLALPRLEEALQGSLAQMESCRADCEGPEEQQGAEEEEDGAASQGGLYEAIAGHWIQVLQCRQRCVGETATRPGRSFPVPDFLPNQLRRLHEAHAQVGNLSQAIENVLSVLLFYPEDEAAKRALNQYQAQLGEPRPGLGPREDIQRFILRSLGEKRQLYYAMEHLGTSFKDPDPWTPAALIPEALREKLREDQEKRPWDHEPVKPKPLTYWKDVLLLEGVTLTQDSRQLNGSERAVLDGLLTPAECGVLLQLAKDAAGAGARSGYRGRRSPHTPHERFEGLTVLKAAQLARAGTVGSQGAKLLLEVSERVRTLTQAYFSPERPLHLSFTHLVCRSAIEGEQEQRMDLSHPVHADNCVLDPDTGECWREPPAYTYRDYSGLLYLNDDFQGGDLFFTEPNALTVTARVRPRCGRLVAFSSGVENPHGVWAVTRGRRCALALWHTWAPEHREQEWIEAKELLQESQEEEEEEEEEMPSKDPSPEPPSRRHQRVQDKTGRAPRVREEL
UniProt O95340: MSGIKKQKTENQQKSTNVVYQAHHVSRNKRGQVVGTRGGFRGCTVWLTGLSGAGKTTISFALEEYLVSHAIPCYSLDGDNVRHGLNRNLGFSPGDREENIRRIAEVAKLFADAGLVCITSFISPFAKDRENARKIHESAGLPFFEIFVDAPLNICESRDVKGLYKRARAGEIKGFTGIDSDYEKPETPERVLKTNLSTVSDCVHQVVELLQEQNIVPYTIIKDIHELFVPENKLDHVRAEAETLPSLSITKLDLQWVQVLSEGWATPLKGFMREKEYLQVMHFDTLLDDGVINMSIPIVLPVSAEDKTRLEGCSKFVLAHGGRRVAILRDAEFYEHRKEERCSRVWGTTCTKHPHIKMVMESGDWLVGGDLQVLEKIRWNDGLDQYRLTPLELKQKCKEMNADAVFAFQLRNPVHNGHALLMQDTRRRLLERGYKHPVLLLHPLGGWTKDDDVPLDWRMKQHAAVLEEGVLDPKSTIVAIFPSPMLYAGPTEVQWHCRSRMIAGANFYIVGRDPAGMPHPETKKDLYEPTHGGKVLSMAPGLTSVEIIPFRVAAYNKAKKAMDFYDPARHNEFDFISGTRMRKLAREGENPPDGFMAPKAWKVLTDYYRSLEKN
UniProt O60890: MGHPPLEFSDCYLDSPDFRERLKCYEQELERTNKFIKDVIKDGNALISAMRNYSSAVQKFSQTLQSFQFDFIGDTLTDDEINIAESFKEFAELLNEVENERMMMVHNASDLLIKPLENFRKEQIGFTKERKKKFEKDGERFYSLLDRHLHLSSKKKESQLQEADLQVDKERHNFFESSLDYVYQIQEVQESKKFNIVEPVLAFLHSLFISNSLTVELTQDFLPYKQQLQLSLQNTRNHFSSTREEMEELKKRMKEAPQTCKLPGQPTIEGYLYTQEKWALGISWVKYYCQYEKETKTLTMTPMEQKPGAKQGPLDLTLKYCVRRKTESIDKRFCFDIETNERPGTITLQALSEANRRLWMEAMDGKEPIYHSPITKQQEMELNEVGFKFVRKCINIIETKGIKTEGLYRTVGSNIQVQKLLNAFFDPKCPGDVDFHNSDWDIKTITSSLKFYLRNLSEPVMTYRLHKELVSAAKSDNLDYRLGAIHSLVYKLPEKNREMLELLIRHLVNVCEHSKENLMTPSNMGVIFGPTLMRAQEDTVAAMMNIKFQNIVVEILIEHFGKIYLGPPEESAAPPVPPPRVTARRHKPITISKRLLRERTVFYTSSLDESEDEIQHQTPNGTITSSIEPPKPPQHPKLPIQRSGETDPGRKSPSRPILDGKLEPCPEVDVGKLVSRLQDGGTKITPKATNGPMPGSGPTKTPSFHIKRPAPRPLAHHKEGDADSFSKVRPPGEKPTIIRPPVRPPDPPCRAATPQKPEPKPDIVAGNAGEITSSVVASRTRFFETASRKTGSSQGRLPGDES
UniProt O15527, whole entry, looked up: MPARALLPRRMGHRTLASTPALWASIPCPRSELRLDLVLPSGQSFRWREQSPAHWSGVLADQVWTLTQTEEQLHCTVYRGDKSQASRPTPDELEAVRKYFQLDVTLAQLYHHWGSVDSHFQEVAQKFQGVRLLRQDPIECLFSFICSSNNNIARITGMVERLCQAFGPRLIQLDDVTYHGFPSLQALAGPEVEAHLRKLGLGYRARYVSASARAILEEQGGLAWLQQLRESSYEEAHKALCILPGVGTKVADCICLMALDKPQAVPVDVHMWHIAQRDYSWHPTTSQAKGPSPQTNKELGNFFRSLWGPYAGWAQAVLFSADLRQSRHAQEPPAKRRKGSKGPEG
UniProt Q13415: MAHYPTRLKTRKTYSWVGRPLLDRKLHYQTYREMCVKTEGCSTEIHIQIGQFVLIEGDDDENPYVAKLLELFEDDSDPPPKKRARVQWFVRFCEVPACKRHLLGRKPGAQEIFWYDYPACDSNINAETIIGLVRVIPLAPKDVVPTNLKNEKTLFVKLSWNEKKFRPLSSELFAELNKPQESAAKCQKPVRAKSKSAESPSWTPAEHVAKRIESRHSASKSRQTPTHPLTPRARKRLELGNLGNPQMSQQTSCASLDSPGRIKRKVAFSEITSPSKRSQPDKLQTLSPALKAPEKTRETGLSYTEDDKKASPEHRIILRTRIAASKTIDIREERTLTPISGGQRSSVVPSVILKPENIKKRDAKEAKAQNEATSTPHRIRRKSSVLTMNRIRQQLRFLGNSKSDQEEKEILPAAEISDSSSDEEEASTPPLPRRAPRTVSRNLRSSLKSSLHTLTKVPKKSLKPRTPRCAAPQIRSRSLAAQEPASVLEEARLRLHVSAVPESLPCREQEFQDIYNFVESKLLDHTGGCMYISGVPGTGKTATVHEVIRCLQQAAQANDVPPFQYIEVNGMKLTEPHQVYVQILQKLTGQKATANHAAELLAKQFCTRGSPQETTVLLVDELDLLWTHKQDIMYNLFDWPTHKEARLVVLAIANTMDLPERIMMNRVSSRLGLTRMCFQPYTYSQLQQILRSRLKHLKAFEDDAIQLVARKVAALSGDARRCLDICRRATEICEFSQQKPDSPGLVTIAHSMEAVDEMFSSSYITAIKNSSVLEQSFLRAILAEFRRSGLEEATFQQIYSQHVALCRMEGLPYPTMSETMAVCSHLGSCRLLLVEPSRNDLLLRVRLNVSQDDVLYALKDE
UniProt Q9H4B0: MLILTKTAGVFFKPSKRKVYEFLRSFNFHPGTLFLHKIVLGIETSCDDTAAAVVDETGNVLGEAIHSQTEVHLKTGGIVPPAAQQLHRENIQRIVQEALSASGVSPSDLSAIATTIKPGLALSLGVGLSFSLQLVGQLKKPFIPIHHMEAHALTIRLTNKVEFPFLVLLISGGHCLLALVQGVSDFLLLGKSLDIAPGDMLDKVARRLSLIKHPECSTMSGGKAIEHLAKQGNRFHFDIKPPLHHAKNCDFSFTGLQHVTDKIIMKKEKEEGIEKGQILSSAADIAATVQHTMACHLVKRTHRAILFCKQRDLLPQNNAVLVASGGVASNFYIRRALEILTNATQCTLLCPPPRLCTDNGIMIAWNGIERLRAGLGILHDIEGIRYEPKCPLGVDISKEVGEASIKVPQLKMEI
UniProt Q9H6K4: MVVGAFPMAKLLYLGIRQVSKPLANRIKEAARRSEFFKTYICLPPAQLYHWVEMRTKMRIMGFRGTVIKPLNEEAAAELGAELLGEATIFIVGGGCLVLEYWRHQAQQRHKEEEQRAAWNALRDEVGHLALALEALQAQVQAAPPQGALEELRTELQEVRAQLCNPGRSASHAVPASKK

Key:
Test in all cases: log2 fold change, soluble protein after heating vs DMSO (PISA); higher = thermal stabilisation; K562 lysate, 10 uM; active = over 0.2 and 3.5 SD of the protein, either way, in both replicates (recomputed)
nilotinib = compound: Cc1cn(-c2cc(NC(=O)c3ccc(C)c(Nc4nccc(-c5cccnc5)n4)c3)cc(C(F)(F)F)c2)cn1 [nilotinib]
Method in brief: (§1)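 K562 pellets were dounce-homogenised in PBS pH 7.4 with 1 mM MgCl2, and the crude extract at 1 mg/mL protein was treated with 10 μM compound for 30 min. Aliquots were heated for 3 min across 48°C-58°C, pooled, and brought to 0.5% NP-40 at 4°C; soluble protein was the supernatant after 21,000xg for 90 min. Soluble protein was quantified by TMTpro 16plex LC-MS/MS with channel sums equalised, and reported as log2 fold change in thermal stability against DMSO controls, with values from duplicates.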

[1] = compound: Cc1nc(Nc2n[nH]c3c2CN(C(=O)N[C@H](CN(C)C)c2ccccc2)C3(C)C)c2sccc2n1
Method in brief: as §1

dasatinib = compound: Cc1nc(Nc2ncc(C(=O)Nc3c(C)cccc3Cl)s2)cc(N2CCN(CCO)CC2)n1 [dasatinib]
Method in brief: as §1

[2] = compound: Cc1ncc(-c2ccnc(Nc3ccc(S(C)(=O)=O)cc3)n2)n1C(C)C
Method in brief: as §1

[3] = compound: Cn1cc(-c2ccc3c(c2)CCN3C(=O)Cc2cccc(C(F)(F)F)c2)c2c(N)ncnc21
Method in brief: as §1

quisinostat = compound: Cn1cc(CNCC2CCN(c3ncc(C(=O)NO)cn3)CC2)c2ccccc21 [quisinostat]
Method in brief: as §1

tipifarnib = compound: Cn1cncc1[C@@](N)(c1ccc(Cl)cc1)c1ccc2c(c1)c(-c1cccc(Cl)c1)cc(=O)n2C [tipifarnib]
Method in brief: as §1

[4] = compound: NC(=O)Nc1cc(-c2cccc(F)c2)sc1C(=O)N[C@H]1CCCNC1
Method in brief: as §1

[5] = compound: NC1(c2ccc(-c3nc4ccn5c(=O)[nH]nc5c4cc3-c3ccccc3)cc2)CCC1
Method in brief: as §1

[6] = compound: NCC(=O)Nc1ccc(-n2nc(C(F)(F)F)cc2-c2ccc3c(ccc4ccccc43)c2)cc1
Method in brief: as §1

vorinostat = compound: O=C(CCCCCCC(=O)Nc1ccccc1)NO [vorinostat]
Method in brief: as §1

silmitasertib = compound: O=C(O)c1ccc2c(c1)nc(Nc1cccc(Cl)c1)c1ccncc12 [silmitasertib]
Method in brief: as §1

[7] = compound: O=C1NC(=O)C(c2cnc3ccccn23)=C1c1cn2c3c(cc(F)cc13)CN(C(=O)N1CCCCC1)CC2
Method in brief: as §1

entospletinib = compound: c1cn2cc(-c3ccc4cn[nH]c4c3)nc(Nc3ccc(N4CCOCC4)cc3)c2n1 [entospletinib]
Method in brief: as §1

[8] = compound: NC(=O)c1cnc(N[C@@H]2CCCC[C@@H]2N)nc1Nc1cccc(-n2nccn2)c1
Method in brief: as §1

Measured: log2 fold change

PAPOLG (UniProt Q9BWT3)
inactive: nilotinib 0.025 | [1] -0.025 | dasatinib -0.023 | [2] 0.031 | [3] 0.079 | quisinostat -0.056 | tipifarnib 0.079 | [4] -0.054 | [5] 0.445 | [6] -0.037 | silmitasertib 0.209 | [7] 0.066 | entospletinib -0.013
active: vorinostat -0.369

ODF2 (UniProt Q5BJF6)
inactive: nilotinib -0.094 | [1] -0.091 | dasatinib -0.047 | [2] 0.133 | [3] 0.007 | quisinostat 0 | tipifarnib 0.024 | [4] 0.019 | [5] 0.029 | [6] 0.002 | vorinostat -0.199 | silmitasertib -0.117 | [7] 0.011 | entospletinib -0.052

OTUD4 (UniProt Q01804)
inactive: nilotinib -0.071 | [1] 0.032 | dasatinib 0.001 | [2] -0.012 | [3] -0.013 | quisinostat -0.034 | tipifarnib 0.025 | [4] 0.041 | [8] -0.044 | [5] 0 | [6] 0.073 | vorinostat 0.098 | silmitasertib -0.026 | [7] 0.008 | entospletinib -0.083

OPA1 isoform 2 (UniProt O60313)
inactive: nilotinib 0.026 | [1] -0.008 | dasatinib -0.07 | [2] 0.007 | [3] 0.018 | quisinostat 0.055 | tipifarnib -0.035 | [4] 0.025 | [8] 0.016 | [5] -0.012 | [6] 0.002 | vorinostat 0.014 | silmitasertib 0.027 | [7] 0.009 | entospletinib -0.004

NUP50 (UniProt Q9UKX7)
inactive: nilotinib 0.005 | [1] 0.011 | dasatinib 0.042 | [2] -0.001 | [3] -0.045 | quisinostat 0.046 | tipifarnib 0.012 | [4] -0.005 | [8] 0.008 | [5] 0.035 | [6] 0.006 | vorinostat 0.006 | silmitasertib 0.003 | [7] -0.001 | entospletinib 0.006

NUP35 (UniProt Q8NFH5)
inactive: nilotinib 0.029 | [1] 0.015 | [2] 0.19 | quisinostat -0.042 | tipifarnib 0.006 | [4] 0.005 | [8] -0.16 | [6] -0.137 | [7] 0.012 | entospletinib 0.069

PACS1 (UniProt Q6VY07)
inactive: nilotinib -0.032 | [1] -0.027 | dasatinib 0.012 | [2] 0.027 | [3] 0.016 | quisinostat -0.021 | tipifarnib 0.003 | [4] 0.023 | [8] 0.001 | [5] 0.009 | [6] -0.034 | vorinostat 0.005 | silmitasertib 0.005 | [7] -0.026 | entospletinib -0.018

PAN3 (UniProt Q58A45)
inactive: nilotinib 0.129 | [1] 0.035 | [2] 0.373 | quisinostat 0.012 | tipifarnib -0.108 | [4] -0.052 | [7] 0.073

PABPN1 (UniProt Q86U42)
inactive: nilotinib -0.119 | [1] 0 | dasatinib 0.019 | [2] 0.031 | [3] 0.016 | quisinostat 0.07 | tipifarnib 0.073 | [4] -0.08 | [8] -0.057 | [7] 0.209 | entospletinib -0.012

OBI1 (UniProt Q5W0B1)
inactive: nilotinib -0.105 | [1] -0.007 | dasatinib 0 | [2] 0.072 | [3] 0.043 | quisinostat -0.093 | tipifarnib -0.024 | [4] 0.119 | [8] -0.008 | [5] -0.034 | [6] 0.132 | vorinostat -0.206 | silmitasertib 0.073 | [7] 0.052 | entospletinib 0.002

OGDH (UniProt Q02218)
inactive: nilotinib -0.023 | [1] 0.009 | dasatinib -0.051 | [2] 0.013 | [3] 0.029 | quisinostat 0.002 | tipifarnib 0.014 | [4] 0.029 | [8] -0.001 | [5] -0.05 | [6] 0.027 | vorinostat 0.037 | silmitasertib -0.004 | [7] 0.045 | entospletinib 0.019

OFD1 (UniProt O75665)
inactive: nilotinib -0.201 | [1] -0.119 | dasatinib 0.008 | [2] 0.157 | [3] 0.162 | tipifarnib 0.35 | [6] 0.072 | entospletinib -0.018

PAGR1 (UniProt Q9BTK6)
inactive: nilotinib -0.074 | [1] 0.011 | dasatinib -0.023 | [2] 0.043 | [3] -0.08 | quisinostat -0.057 | tipifarnib -0.075 | [4] 0.064 | [8] 0.142 | [5] -0.135 | [6] 0.016 | vorinostat 0.139 | silmitasertib 0.106 | [7] 0 | entospletinib 0.024

OBSCN isoform 6 (UniProt Q5VST9)
inactive: [8] -0.012 | [5] 0.079 | vorinostat -0.063 | silmitasertib 0.098

PALM isoform 2 (UniProt O75781)
inactive: [5] 0.059 | vorinostat 0.049 | silmitasertib -0.13

NXT2 isoform 3 (UniProt Q9NPJ8)
inactive: [8] 0.097

PAGE4 (UniProt O60829)
inactive: dasatinib -0.086 | [3] -0.035 | quisinostat -0.097 | [4] 0.036 | [8] 0.04 | [5] 0.004 | silmitasertib 0.06 | [7] -0.074 | entospletinib -0.054
active: vorinostat -0.425

OCIAD1 (UniProt D6RF01)
inactive: nilotinib 0.075 | [1] -0.104 | [2] 0.121 | tipifarnib 0.062 | [8] -0.168

PACS2 isoform 2 (UniProt Q86VP3)
inactive: quisinostat -0.234 | [4] -0.028 | [5] 0.035 | vorinostat -0.168 | silmitasertib 0.063 | [7] -0.071 | entospletinib -0.035

P4HA1 isoform 2 (UniProt P13674)
inactive: quisinostat 0.061 | [4] 0.019 | [5] 0.028 | [6] 0.09 | vorinostat 0.079 | silmitasertib -0.053 | [7] -0.024 | entospletinib -0.033

NXT1 (UniProt Q9UKK6)
inactive: nilotinib 0.053 | [1] -0.163 | [2] -0.058 | tipifarnib -0.092 | [8] 0.063 | [5] 0.084 | [6] 0.051 | vorinostat -0.128 | silmitasertib -0.057

P2RX4 isoform 2 (UniProt Q99571)
inactive: dasatinib -0.112 | [3] -0.107 | quisinostat -0.328 | [4] -0.02 | [8] 0.082 | [5] -0.042 | [6] 0.203 | vorinostat 0.083 | silmitasertib 0.004 | [7] -0.001 | entospletinib -0.025

NXPE1 (UniProt F5H0Y6)
inactive: [8] 0.05

P4HA2 (UniProt O15460)
inactive: dasatinib 0.034 | [3] 0.023 | quisinostat -0.032 | [4] 0.027 | [8] 0.058 | [5] 0.006 | [6] 0.007 | vorinostat -0.016 | silmitasertib 0.011 | [7] 0.014 | entospletinib 0

NUP214, A0A494C1F2
inactive: [5] 0.026 | vorinostat -0.152 | silmitasertib -0.03

OAF (UniProt Q86UD1)
inactive: dasatinib -0.301 | [3] 0.066 | [5] -0.049 | vorinostat 0.243 | silmitasertib 0.022

PAQR4 (UniProt Q8N4S7)
inactive: [5] 0.074 | vorinostat 0.077 | silmitasertib 0.074

OS9 isoform 7 (UniProt Q13438)
inactive: [5] 0.153 | vorinostat 0.198 | silmitasertib -0.02

OCIAD1 (UniProt D6RDK6)
inactive: nilotinib -0.131 | [1] 0.037 | [2] -0.095 | tipifarnib 0.028 | [8] -0.023 | [6] 0.063 | entospletinib -0.038

P4HB (UniProt I3L0S0)
inactive: [8] -0.049

PAQR7 (UniProt Q86WK9)
inactive: [5] -0.075 | vorinostat -0.071 | silmitasertib 0.194

PACRGL (UniProt Q8N7B6)
inactive: dasatinib 0.021 | [3] 0.205 | quisinostat 0.047 | [4] -0.422 | [7] -0.051 | entospletinib 0.063

PAAT (UniProt Q9H8K7)
inactive: dasatinib 0.007 | [3] 0.027 | quisinostat -0.165 | [4] 0.012 | [8] -0.022 | [5] 0.065 | [6] -0.016 | vorinostat -0.228 | silmitasertib 0 | [7] 0.063 | entospletinib -0.042

P3H3 (UniProt Q8IVL6)
inactive: dasatinib 0.039 | [3] -0.162 | [5] 0.16 | [6] 0.018 | vorinostat 0.066 | silmitasertib -0.073

PAPSS2 isoform 2 (UniProt O95340)
inactive: [8] 0.1 | [6] 0.106 | entospletinib -0.05

OPHN1 (UniProt O60890)
inactive: dasatinib 0.081 | [3] -0.188 | [8] 0.205 | entospletinib 0.036

NXF2 (UniProt Q9GZY0)
inactive: dasatinib -0.003 | [3] 0.1 | [5] 0.149 | vorinostat -0.359 | silmitasertib -0.001

PARD3B (UniProt Q8TEW8)
inactive: dasatinib 0.051 | [3] -0.095 | [5] 0.174 | silmitasertib -0.209
active: vorinostat -0.585

ORMDL3 (UniProt Q8N138)
inactive: dasatinib -0.263 | [3] -0.107 | quisinostat -0.093 | [4] -0.069 | [8] -0.107 | [7] 0.192

OGG1 isoform 4 (UniProt O15527)
inactive: dasatinib -0.389 | [3] -0.123 | [5] 0.063 | vorinostat 0.178 | silmitasertib -0.035 | entospletinib -0.144

P2RY1 (UniProt P47900)
inactive: dasatinib 0.012 | [3] -0.027 | [8] -0.182 | [5] 0.004 | vorinostat 0.04 | silmitasertib 0.13 | entospletinib -0.064

ORC1 (UniProt Q13415)
inactive: entospletinib -0.047

OSGEPL1 (UniProt Q9H4B0)
inactive: quisinostat -0.285 | [4] 0.098 | [8] 0.371 | [6] 0.104 | [7] 0.068 | entospletinib 0.068

NUP214 isoform 4 (UniProt P35658)
inactive: nilotinib 0.039 | [1] -0.131 | [2] 0.027 | tipifarnib -0.221 | [8] -0.096 | [5] 0.201 | vorinostat -0.333 | silmitasertib 0.073

OSBPL9 (UniProt E9PLH0)
inactive: [5] -0.007 | vorinostat -0.277 | silmitasertib -0.106

OPA3 isoform 2 (UniProt Q9H6K4)
inactive: dasatinib -0.146 | [3] -0.044 | quisinostat 0.045 | [4] 0.001 | [7] 0.191

PAOX (UniProt Q6QHF9)
inactive: quisinostat -0.007 | [4] -0.02 | [7] 0.085

Copied from above (2 entries):
OPA3 isoform 2 (UniProt Q9H6K4)
inactive: dasatinib -0.146 | [3] -0.044 | quisinostat 0.045 | [4] 0.001 | [7] 0.191

PAOX (UniProt Q6QHF9)
inactive: quisinostat -0.007 | [4] -0.02 | [7] 0.085
